Laboratory results taken from US10781183B2, “Small molecule inducers of reactive oxygen species and inhibitors of mitochondrial activity” (The Regents of the University of Michigan, priority 2016, dated 2020).
Some results were stated once for a whole list of compounds, not compound by compound.

Tested on: MiaPaCa-2 cells
Experiment: ROS detection assay (H2DCFDA probe)
Format: cell-based
Conditions: MiaPaCa-2 (FIG. 3A)
Experimental: To quantify ROS induction by redox modulators, a high throughput ROS assay in 384-well plates using H2DCFDA as the ROS detection probe was developed (FIG. 1A).
Cells were detached by 0.05% trypsin-EDTA, neutralized, centrifuged (1200 rpm, 5 min) and resuspended in cell culture media. Suspension were then treated with 20 μM cell permeable H2DCFDA for 30 min at 37° C. Cells were then centrifuged (1200 rpm, 5 min) and washed with cell culture media to remove excess probe. After washing, cells were placed in black-wall 384-well plate at 20,000 cells/well, incubated for 30 min and treated by compounds at designated conditions. Fluorescent signal were then read at 493 nm/523 nm on BioTek H1 plate reader for ROS detection.

Row | Compound | time at which ROS accumulation reaches peak levels [h]
1 | O=C1C(Nc2ccc(-c3ccccc3)cc2)=CC(=O)c2ncncc21 [QD325, 6-([1,1′-biphenyl]-4-ylamino)quinazoline-5,8-dione] | 4 to 6
2 | COc1cc(NC2=CC(=O)c3ncncc3C2=O)cc(OC)c1OC [QD326, 6-((3,4,5-trimethoxyphenyl)amino)quinazoline-5,8-dione] | 4 to 6
